Assay results as given in the supplement of paper PMC10849652.
The list shows a part of the results.

Chains of the proteins cited; added tags and fusions are not shown. Lines headed by an entry give the natural chain unless they say otherwise; changes in a name come on top.
UniProt Q969H8: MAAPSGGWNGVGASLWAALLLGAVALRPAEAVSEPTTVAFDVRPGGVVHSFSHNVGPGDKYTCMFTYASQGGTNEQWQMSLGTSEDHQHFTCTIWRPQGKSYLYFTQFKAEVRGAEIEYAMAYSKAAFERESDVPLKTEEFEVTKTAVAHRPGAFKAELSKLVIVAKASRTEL
UniProt Q02083: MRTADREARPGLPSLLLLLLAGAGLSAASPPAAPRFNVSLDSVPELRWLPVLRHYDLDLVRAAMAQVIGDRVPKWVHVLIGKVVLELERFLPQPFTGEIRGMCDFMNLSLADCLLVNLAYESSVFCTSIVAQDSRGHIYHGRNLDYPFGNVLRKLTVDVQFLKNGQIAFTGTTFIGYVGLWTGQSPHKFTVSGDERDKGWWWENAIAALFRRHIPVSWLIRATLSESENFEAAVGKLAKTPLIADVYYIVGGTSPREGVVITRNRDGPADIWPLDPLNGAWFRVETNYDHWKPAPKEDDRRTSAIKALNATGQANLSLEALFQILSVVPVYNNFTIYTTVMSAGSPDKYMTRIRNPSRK
UniProt Q13459: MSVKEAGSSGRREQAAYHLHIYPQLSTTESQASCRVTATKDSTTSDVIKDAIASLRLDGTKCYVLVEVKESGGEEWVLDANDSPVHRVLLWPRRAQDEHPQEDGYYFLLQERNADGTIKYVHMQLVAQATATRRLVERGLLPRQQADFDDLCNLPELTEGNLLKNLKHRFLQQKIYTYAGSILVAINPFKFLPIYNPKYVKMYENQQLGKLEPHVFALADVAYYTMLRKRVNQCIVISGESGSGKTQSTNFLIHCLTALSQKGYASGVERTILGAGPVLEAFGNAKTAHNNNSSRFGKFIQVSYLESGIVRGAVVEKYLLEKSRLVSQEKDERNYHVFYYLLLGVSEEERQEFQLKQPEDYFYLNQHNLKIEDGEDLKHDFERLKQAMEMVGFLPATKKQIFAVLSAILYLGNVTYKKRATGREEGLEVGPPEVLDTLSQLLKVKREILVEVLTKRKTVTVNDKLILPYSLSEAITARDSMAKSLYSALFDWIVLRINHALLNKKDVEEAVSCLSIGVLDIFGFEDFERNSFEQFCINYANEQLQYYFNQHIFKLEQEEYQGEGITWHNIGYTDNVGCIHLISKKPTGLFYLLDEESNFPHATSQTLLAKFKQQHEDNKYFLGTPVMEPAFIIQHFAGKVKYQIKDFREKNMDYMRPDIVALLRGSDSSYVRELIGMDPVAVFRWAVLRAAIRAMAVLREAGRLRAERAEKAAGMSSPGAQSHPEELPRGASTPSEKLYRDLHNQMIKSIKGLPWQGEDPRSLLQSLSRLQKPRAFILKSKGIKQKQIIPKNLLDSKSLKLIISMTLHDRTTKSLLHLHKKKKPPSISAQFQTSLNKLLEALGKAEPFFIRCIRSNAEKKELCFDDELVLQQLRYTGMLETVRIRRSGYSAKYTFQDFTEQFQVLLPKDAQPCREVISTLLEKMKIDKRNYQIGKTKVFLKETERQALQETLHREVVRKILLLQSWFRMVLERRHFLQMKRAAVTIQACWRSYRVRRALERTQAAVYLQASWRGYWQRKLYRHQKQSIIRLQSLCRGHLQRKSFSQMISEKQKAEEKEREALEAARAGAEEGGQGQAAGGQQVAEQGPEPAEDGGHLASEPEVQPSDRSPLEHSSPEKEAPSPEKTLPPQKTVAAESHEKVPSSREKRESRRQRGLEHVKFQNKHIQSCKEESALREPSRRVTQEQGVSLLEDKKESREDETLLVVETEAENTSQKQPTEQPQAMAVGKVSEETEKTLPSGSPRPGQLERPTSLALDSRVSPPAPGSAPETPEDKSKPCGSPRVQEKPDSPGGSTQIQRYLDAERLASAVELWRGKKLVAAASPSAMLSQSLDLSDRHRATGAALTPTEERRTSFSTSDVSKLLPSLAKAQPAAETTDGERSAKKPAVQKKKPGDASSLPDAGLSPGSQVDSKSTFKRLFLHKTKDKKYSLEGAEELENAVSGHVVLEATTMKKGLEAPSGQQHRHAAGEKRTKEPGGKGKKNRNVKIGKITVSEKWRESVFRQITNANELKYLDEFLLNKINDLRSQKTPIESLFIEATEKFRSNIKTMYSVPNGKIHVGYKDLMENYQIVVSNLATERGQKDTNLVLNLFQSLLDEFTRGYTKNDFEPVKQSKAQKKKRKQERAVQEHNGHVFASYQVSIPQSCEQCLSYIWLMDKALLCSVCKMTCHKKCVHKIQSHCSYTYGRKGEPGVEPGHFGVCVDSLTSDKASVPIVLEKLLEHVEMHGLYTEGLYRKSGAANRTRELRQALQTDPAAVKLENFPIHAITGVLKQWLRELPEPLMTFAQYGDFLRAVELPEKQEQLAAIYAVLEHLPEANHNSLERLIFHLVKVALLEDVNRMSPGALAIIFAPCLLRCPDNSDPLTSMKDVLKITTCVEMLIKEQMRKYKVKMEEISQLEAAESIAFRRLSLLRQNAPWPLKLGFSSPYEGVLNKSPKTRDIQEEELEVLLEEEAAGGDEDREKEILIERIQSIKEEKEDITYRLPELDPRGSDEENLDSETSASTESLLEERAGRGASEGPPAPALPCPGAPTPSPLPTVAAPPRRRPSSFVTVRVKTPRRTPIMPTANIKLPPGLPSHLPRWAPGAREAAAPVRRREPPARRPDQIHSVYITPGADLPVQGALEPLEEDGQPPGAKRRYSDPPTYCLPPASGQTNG
UniProt Q9UM54, whole entry, looked up: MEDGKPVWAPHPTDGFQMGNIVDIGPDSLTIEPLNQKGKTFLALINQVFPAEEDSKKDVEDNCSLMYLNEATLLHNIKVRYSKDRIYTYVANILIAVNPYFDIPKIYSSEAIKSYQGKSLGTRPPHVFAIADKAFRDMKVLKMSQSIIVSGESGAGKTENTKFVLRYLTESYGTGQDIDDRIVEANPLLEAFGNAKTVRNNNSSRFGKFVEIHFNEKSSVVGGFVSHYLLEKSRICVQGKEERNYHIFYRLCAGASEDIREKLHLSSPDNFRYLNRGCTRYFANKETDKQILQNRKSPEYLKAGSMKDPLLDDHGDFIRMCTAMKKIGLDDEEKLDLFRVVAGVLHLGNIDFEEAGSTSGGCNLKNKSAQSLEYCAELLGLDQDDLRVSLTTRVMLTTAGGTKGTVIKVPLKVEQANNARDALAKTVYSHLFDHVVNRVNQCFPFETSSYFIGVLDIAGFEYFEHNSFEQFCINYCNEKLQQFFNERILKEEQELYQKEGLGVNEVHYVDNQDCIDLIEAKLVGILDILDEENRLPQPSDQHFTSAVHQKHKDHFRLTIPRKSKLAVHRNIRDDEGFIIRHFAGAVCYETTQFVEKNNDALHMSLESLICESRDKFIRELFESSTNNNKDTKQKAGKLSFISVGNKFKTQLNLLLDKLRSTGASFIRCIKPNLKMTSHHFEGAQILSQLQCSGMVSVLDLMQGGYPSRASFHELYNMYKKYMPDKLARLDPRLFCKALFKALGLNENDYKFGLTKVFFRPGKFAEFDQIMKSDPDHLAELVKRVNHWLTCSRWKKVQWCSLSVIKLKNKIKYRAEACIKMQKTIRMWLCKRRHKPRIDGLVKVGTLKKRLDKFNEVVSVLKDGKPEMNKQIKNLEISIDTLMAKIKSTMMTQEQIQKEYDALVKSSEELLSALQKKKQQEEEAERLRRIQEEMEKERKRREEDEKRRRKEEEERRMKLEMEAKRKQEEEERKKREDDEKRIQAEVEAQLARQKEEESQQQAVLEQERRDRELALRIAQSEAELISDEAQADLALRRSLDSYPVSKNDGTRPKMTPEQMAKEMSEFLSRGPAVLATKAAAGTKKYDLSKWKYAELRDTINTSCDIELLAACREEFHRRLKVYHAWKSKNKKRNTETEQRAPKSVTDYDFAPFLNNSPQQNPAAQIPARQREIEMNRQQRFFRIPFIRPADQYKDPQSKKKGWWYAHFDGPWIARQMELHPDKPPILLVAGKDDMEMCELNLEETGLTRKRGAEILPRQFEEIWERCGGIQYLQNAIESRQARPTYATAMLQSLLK
UniProt Q9BXJ9: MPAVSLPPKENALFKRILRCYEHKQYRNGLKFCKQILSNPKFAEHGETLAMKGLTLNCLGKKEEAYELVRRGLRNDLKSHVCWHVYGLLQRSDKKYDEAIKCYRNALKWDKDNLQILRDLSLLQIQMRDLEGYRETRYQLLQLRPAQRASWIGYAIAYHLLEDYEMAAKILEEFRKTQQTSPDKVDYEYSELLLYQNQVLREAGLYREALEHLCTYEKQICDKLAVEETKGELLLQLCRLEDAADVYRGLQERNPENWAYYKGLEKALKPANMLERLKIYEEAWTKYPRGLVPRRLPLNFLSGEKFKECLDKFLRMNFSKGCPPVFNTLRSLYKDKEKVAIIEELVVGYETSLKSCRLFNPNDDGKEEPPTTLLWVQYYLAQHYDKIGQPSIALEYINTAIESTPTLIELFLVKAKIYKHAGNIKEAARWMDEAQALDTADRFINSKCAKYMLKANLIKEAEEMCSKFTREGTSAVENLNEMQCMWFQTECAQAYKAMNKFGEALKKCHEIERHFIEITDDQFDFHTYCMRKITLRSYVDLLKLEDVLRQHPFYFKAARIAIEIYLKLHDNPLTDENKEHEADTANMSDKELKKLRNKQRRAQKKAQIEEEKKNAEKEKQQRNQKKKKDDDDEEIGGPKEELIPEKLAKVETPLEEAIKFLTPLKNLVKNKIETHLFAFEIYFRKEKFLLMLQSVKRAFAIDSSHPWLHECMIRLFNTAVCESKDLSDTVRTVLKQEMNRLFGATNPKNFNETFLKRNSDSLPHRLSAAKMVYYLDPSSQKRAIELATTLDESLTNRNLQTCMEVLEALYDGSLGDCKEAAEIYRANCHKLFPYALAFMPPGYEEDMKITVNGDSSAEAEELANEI
UniProt Q6P582, whole entry, looked up: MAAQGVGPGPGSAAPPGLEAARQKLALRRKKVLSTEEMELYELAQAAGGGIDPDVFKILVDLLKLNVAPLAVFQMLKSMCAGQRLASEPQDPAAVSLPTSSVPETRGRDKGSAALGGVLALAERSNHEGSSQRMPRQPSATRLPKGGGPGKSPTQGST
UniProt Q15021, whole entry, looked up: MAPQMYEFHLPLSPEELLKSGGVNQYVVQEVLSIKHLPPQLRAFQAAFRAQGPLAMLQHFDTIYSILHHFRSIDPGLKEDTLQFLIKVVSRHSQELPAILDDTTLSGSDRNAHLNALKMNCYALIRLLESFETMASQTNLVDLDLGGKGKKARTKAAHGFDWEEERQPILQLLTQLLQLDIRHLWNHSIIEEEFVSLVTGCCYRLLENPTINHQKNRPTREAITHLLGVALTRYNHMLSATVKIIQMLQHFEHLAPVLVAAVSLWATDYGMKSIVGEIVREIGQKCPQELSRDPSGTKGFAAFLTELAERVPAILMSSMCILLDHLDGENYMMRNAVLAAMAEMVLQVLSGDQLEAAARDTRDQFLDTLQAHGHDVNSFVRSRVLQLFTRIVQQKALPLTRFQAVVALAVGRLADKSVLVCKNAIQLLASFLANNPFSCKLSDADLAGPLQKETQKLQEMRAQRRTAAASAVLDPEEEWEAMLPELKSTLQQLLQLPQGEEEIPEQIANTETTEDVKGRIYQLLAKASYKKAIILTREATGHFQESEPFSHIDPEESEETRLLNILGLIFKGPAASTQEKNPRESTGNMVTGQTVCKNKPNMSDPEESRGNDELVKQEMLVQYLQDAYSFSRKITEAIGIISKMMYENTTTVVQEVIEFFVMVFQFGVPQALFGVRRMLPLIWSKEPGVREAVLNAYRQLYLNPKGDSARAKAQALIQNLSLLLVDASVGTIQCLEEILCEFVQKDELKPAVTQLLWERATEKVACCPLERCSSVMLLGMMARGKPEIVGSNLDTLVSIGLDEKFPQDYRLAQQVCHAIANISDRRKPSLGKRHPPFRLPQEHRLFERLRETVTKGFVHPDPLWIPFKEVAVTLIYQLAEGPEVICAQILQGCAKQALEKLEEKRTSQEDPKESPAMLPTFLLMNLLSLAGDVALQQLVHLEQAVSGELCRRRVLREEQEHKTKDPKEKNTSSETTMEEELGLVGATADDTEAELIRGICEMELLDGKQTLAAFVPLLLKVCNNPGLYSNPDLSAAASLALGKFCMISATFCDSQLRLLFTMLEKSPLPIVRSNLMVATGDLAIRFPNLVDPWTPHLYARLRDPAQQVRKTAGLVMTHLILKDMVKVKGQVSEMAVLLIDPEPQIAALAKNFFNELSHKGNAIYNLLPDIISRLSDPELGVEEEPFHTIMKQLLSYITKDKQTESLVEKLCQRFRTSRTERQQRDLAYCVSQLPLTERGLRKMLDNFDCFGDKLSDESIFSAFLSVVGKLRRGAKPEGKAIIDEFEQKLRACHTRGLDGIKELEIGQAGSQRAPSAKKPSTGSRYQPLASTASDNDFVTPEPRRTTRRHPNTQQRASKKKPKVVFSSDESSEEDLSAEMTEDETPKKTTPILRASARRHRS

Experiments:
Experiment in all cases: log2 fold change, soluble protein after heating vs DMSO (PISA); higher = thermal stabilisation; K562 lysate, 10 uM; active = over 0.2 and 3.5 SD of the protein, either way, in both replicates (recomputed)
vemurafenib = compound: CCCS(=O)(=O)Nc1ccc(F)c(C(=O)c2c[nH]c3ncc(-c4ccc(Cl)cc4)cc23)c1F [vemurafenib]
Outline: (§1)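 Quantification was by TMTpro 16plex LC-MS/MS with equalised channel sums, applied to the supernatant after 21,000xg for 90 min. Samples were crude K562 extract at 1 mg/mL protein in PBS pH 7.4 with 1 mM MgCl2, treated with 10 μM compound for 30 min, heated for 3 min across 48°C-58°C, pooled and brought to 0.5% NP-40 at 4°C. Values are log-two fold changes in thermal stability relative to solvent controls, from duplicates.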

[1] = compound: CCCS(=O)(=O)Nc1ccc(F)c(C(=O)c2c[nH]c3ncc(Cl)cc23)c1F
Outline: as §1

barasertib = compound: CCN(CCCOc1ccc2c(Nc3cc(CC(=O)Nc4cccc(F)c4)[nH]n3)ncnc2c1)CCOP(=O)(O)O [barasertib]
Outline: as §1

[2] = compound: CC[C@@H]1C(=O)N(C)c2cnc(Nc3ccc(C(=O)NC4CCN(C)CC4)cc3OC)nc2N1C1CCCC1
Outline: as §1

volasertib = compound: CC[C@@H]1C(=O)N(C)c2cnc(Nc3ccc(C(=O)N[C@H]4CC[C@H](N5CCN(CC6CC6)CC5)CC4)cc3OC)nc2N1C(C)C [volasertib]
Outline: as §1

[3] = compound: CCn1c(C(=O)N(C2CC2)C2CC2)cc2c3c(ncn3C)c(Nc3cc(C)n(C)n3)nc21
Outline: as §1

[4] = compound: CCn1cc(-c2ccnc3[nH]c(-c4cccc(CN(C)C)c4)cc23)c(-c2ccc(NC(=O)N(C)C)cc2)n1
Outline: as §1

[5] = compound: CN1CCC(CNc2ccc3ncc(-c4cccc(OC(F)(F)F)c4)n3n2)CC1
Outline: as §1

saracatinib = compound: CN1CCN(CCOc2cc(OC3CCOCC3)c3c(Nc4c(Cl)ccc5c4OCO5)ncnc3c2)CC1 [saracatinib]
Outline: as §1

sotrastaurin = compound: CN1CCN(c2nc(C3=C(c4c[nH]c5ccccc45)C(=O)NC3=O)c3ccccc3n2)CC1 [sotrastaurin]
Outline: as §1

alvocidib = compound: CN1CC[C@H](c2c(O)cc(O)c3c(=O)cc(-c4ccccc4Cl)oc23)[C@H](O)C1 [alvocidib]
Outline: as §1

Tubastatin A = compound: CN1CCc2c(c3ccccc3n2Cc2ccc(C(=O)NO)cc2)C1 [Tubastatin A]
Outline: as §1

[6] = compound: CNC(=O)C1=CC=CC=C1NC2=NC(=NC=C2Cl)NC3=C(C=C(C=C3)N4CCOCC4)OC
Outline: as §1

defactinib = compound: CNC(=O)c1ccc(Nc2ncc(C(F)(F)F)c(NCc3nccnc3N(C)S(C)(=O)=O)n2)cc1 [defactinib]
Outline: as §1

[7] = compound: CNc1nc(-c2ccc3c(N)n[nH]c3c2)cc(N2C[C@@H](C(=O)NC3CCCCC3)CC[C@H]2C)n1
Outline: as §1

encorafenib = compound: COC(=O)N[C@@H](C)CNc1nccc(-c2cn(C(C)C)nc2-c2cc(Cl)cc(NS(C)(=O)=O)c2F)n1 [encorafenib]
Outline: as §1

[8] = compound: COC(=O)[C@H](CCSC)NC(=O)C1=C(C=C(C=C1)NC[C@H](CS)N)C2=CC=CC=C2
Outline: as §1

alisertib = compound: COc1cc(Nc2ncc3c(n2)-c2ccc(Cl)cc2C(c2c(F)cccc2OC)=NC3)ccc1C(=O)O [alisertib]
Outline: as §1

[9] = compound: COc1cc2nc(-c3cc(F)ccc3O)nc(N[C@@H]3CNC[C@H]3C(C)(C)O)c2cc1OC
Outline: as §1

gefitinib = compound: COc1cc2ncnc(Nc3ccc(F)c(Cl)c3)c2cc1OCCCN1CCOCC1 [gefitinib]
Outline: as §1

Measured: log2 fold change

MYH14 isoform 2 (UniProt Q7Z406)
inactive: vemurafenib 0.059 | [1] 0.06 | barasertib 0.028 | [2] 0.05 | volasertib 0 | [3] -0.012 | [4] -0.026 | [5] 0.024 | saracatinib -0.002 | sotrastaurin 0.04 | alvocidib -0.006 | Tubastatin A 0 | [6] -0.043 | defactinib 0.01 | [7] 0.016 | encorafenib -0.027 | [8] 0.025 | alisertib 0.007 | [9] 0.034 | gefitinib 0.015

MYH11 isoform 2 (UniProt P35749)
inactive: vemurafenib 0.027 | [1] 0.016 | barasertib 0.016 | [2] -0.011 | volasertib -0.025 | [3] 0.091 | [5] -0.033 | saracatinib 0.029 | sotrastaurin 0.002 | alvocidib -0.042 | Tubastatin A -0.069 | [6] -0.028 | defactinib -0.083 | [7] 0.031 | encorafenib -0.002 | [8] 0.07 | alisertib 0.002 | [9] -0.005 | gefitinib 0.031
active: [4] 0.25

MYDGF (UniProt Q969H8)
inactive: vemurafenib 0.028 | [1] -0.014 | barasertib -0.019 | [2] 0.054 | volasertib 0.053 | [3] -0.021 | [4] -0.106 | [5] 0.066 | saracatinib 0.004 | sotrastaurin -0.002 | alvocidib -0.024 | Tubastatin A 0.056 | [6] -0.005 | defactinib -0.013 | [7] 0.036 | encorafenib 0.015 | [8] -0.02 | alisertib -0.012 | [9] 0.035 | gefitinib -0.024

NAAA (UniProt Q02083)
inactive: vemurafenib 0.013 | [1] 0.076 | barasertib -0.057 | [2] -0.03 | volasertib -0.24 | [3] -0.01 | [4] -0.07 | [5] 0.095 | saracatinib 0.094 | sotrastaurin -0.015 | alvocidib -0.003 | Tubastatin A 0.062 | [6] -0.019 | defactinib 0.033 | [7] 0.044 | encorafenib 0.002 | [8] 0.053 | alisertib 0.029 | [9] -0.104 | gefitinib -0.044

MYO9B (UniProt Q13459)
inactive: vemurafenib 0.065 | [1] 0.03 | barasertib 0.049 | [2] 0.017 | volasertib -0.002 | [3] 0.048 | [4] -0.067 | [5] 0.081 | saracatinib -0.003 | sotrastaurin 0.048 | alvocidib -0.034 | Tubastatin A -0.08 | [6] -0.019 | defactinib 0.031 | [7] -0.012 | encorafenib 0.027 | [8] 0.159 | alisertib -0.007 | [9] -0.008 | gefitinib 0.016

NADK2 (UniProt Q4G0N4)
active: [8] 0.3
inactive: vemurafenib 0.024 | [1] -0.013 | barasertib 0.034 | [2] 0.078 | volasertib 0.008 | [3] -0.016 | [4] -0.019 | [5] 0.02 | saracatinib -0.035 | sotrastaurin -0.036 | alvocidib -0.025 | Tubastatin A 0.106 | [6] -0.036 | defactinib 0 | [7] 0.04 | encorafenib -0.052 | alisertib -0.022 | [9] -0.004 | gefitinib -0.009

MYBBP1A isoform 2 (UniProt Q9BQG0)
inactive: vemurafenib 0.017 | [1] 0.032 | barasertib 0.021 | [2] -0.048 | volasertib 0.004 | [3] 0.034 | [4] 0.032 | [5] -0.038 | saracatinib 0.007 | sotrastaurin 0.008 | alvocidib 0.051 | Tubastatin A -0.089 | [6] -0.008 | defactinib -0.044 | [7] 0.012 | encorafenib 0.027 | [8] 0.004 | alisertib 0.007 | [9] -0.011 | gefitinib -0.011

NACC1 (UniProt Q96RE7)
inactive: vemurafenib -0.039 | [1] -0.003 | barasertib 0.039 | [2] -0.027 | volasertib 0.008 | [3] 0.004 | [4] -0.059 | [5] -0.003 | saracatinib -0.016 | sotrastaurin 0.034 | alvocidib -0.02 | Tubastatin A -0.086 | [6] 0.002 | defactinib -0.01 | [7] 0.016 | encorafenib 0.022 | [8] 0.024 | alisertib 0.018 | [9] -0.012 | gefitinib -0.019

NAPA (UniProt P54920)
inactive: vemurafenib -0.003 | [1] 0.019 | barasertib -0.012 | [2] 0.038 | volasertib 0.004 | [3] -0.017 | [4] 0.121 | [5] 0.008 | saracatinib -0.018 | sotrastaurin -0.118 | alvocidib 0.001 | Tubastatin A 0.035 | [6] 0.01 | defactinib 0.001 | [7] 0.048 | encorafenib -0.005 | [8] -0.076 | alisertib -0.009 | [9] 0.026 | gefitinib -0.006

Quoted from the entries so far (2 entries):
NADK2 (UniProt Q4G0N4)
active: [8] 0.3
inactive: vemurafenib 0.024 | [1] -0.013 | barasertib 0.034 | [2] 0.078 | volasertib 0.008 | [3] -0.016 | [4] -0.019 | [5] 0.02 | saracatinib -0.035 | sotrastaurin -0.036 | alvocidib -0.025 | Tubastatin A 0.106 | [6] -0.036 | defactinib 0 | [7] 0.04 | encorafenib -0.052 | alisertib -0.022 | [9] -0.004 | gefitinib -0.009

MYBBP1A isoform 2 (UniProt Q9BQG0)
inactive: vemurafenib 0.017 | [1] 0.032 | barasertib 0.021 | [2] -0.048 | volasertib 0.004 | [3] 0.034 | [4] 0.032 | [5] -0.038 | saracatinib 0.007 | sotrastaurin 0.008 | alvocidib 0.051 | Tubastatin A -0.089 | [6] -0.008 | defactinib -0.044 | [7] 0.012 | encorafenib 0.027 | [8] 0.004 | alisertib 0.007 | [9] -0.011 | gefitinib -0.011

Additional entries.

MYO6 isoform 6 (UniProt Q9UM54)
inactive: vemurafenib 0.01 | [1] 0.004 | barasertib 0.011 | [2] 0.039 | volasertib -0.056 | [3] 0.082 | [4] -0.047 | [5] -0.003 | saracatinib -0.15 | sotrastaurin 0.066 | alvocidib -0.011 | Tubastatin A -0.043 | [6] 0.033 | defactinib 0.032 | [7] 0.096 | encorafenib 0.027 | [8] -0.118 | alisertib -0.01 | [9] 0.02 | gefitinib 0.017

NAA15 (UniProt Q9BXJ9)
inactive: vemurafenib -0.034 | [1] 0.004 | barasertib 0.006 | [2] -0.042 | volasertib -0.017 | [3] 0.018 | [4] 0.031 | [5] -0.004 | saracatinib -0.009 | sotrastaurin -0.004 | alvocidib 0.024 | Tubastatin A -0.007 | [6] -0.009 | defactinib -0.008 | [7] -0.033 | encorafenib -0.011 | [8] 0.073 | alisertib 0.014 | [9] -0.013 | gefitinib 0.002

NAE1 (UniProt Q13564)
inactive: vemurafenib -0.024 | [1] 0.027 | barasertib 0.002 | [2] 0.031 | volasertib -0.018 | [3] -0.039 | [4] -0.056 | [5] 0.037 | saracatinib 0.017 | sotrastaurin 0.02 | alvocidib 0.01 | Tubastatin A -0.023 | [6] 0.01 | defactinib 0.02 | [7] -0.013 | encorafenib -0.007 | [8] 0.03 | alisertib 0.004 | [9] 0.008 | gefitinib -0.026

NCAPH2 (UniProt Q6IBW4)
inactive: vemurafenib -0.044 | [1] 0.027 | barasertib 0.058 | [2] 0.027 | volasertib -0.002 | [3] -0.014 | [4] -0.032 | [5] 0.02 | saracatinib 0.001 | sotrastaurin 0.03 | alvocidib 0.038 | Tubastatin A -0.193 | [6] 0 | defactinib 0.005 | [7] -0.084 | encorafenib 0.064 | [8] -0.039 | alisertib -0.027 | [9] 0.01 | gefitinib -0.048

NCOR1 (UniProt O75376)
inactive: vemurafenib -0.005 | [1] -0.01 | barasertib 0.018 | [2] 0.043 | volasertib 0.002 | [3] -0.014 | [4] -0.002 | [5] -0.033 | saracatinib 0.006 | sotrastaurin 0.006 | alvocidib -0.028 | Tubastatin A -0.027 | [6] 0.018 | defactinib 0.06 | [7] 0.021 | encorafenib 0.015 | [8] -0.007 | alisertib 0.01 | [9] 0.018 | gefitinib -0.019

MZT2A (UniProt Q6P582)
inactive: vemurafenib 0.027 | [1] -0.021 | barasertib -0.022 | [2] 0.07 | volasertib 0.055 | [3] 0.218 | [4] 0.112 | [5] -0.105 | saracatinib 0 | sotrastaurin -0.086 | alvocidib 0.083 | Tubastatin A -0.042 | [6] -0.046 | defactinib -0.039 | [7] -0.041 | encorafenib 0.005 | [8] -0.24 | alisertib 0.103 | [9] -0.032 | gefitinib 0.027

NCAPD2 (UniProt Q15021)
inactive: vemurafenib 0.025 | [1] 0.014 | barasertib 0.016 | [2] -0.027 | volasertib -0.057 | [3] 0.022 | [4] -0.037 | [5] -0.055 | saracatinib 0.006 | sotrastaurin 0.021 | alvocidib 0.007 | Tubastatin A -0.119 | [6] 0.013 | defactinib 0.002 | [7] -0.018 | encorafenib 0.013 | [8] 0.076 | alisertib 0.004 | [9] -0.005 | gefitinib -0.016
